In patent publication US20080275018A1 (AiCuris GmbH & Co. KG, priority 2005, published 2008):

Experiment: general procedure: solution-phase peptide synthesis; EDC/HOBt; PyBOP
Details: coupling step, hydrochloride

| Substance | step yield |
| --- | --- |
| Benzyl ((1S)-4-{[(2S)-5-{[(benzyloxy)carbonyl]amino}-2-({[(8S,11S,14S)-14-[(tert-butoxycarbonyl)amino]-11-{3-[(tert-butoxycarbonyl)amino]propyl}-17-hydroxy-9-methyl-10,13-dioxo-9,12-diazatricyclo[14.3.1.1^2,6]henicosa-1(20),2(21),3,5,16,18-hexaen-8-yl]carbonyl}amino)pentanoyl]amino}-1-{2-[(2-{[(benzyloxy)carbonyl]amino}ethyl)amino]-2-oxoethyl}butyl)carbamate | 25% of theory |
| Benzyl [(1S)-4-{[(benzyloxy)carbonyl]amino}-1-({[3-({[(8S,11S,14S)-14-[(tert-butoxycarbonyl)amino]-11-{(2R)-3-[(tert-butoxycarbonyl)amino]-2-hydroxypropyl}-17-hydroxy-9-methyl-10,13-dioxo-9,12-diazatricyclo[14.3.1.1^2,6]henicosa-1(20),2(21),3,5,16,18-hexaen-8-yl]carbonyl}amino)-2-hydroxypropyl]amino}carbonyl)butyl]carbamate | 30% of theory |

Same assay, conditions: late stage modification step, hexahydrochloride

| Substance | step yield |
| --- | --- |
| (8S,11S,14S)-14-Amino-N-((1S)-4-amino-1-{[((4S)-4-amino-6-{[(2S)-2,5-diaminopentyl]-amino}-6-oxohexyl)amino]carbonyl}butyl)-11-(3-aminopropyl)-17-hydroxy-10,13-dioxo-9,12-diazatricyclo[14.3.1.1^2,6]henicosa-1 (20),2(21),3,5,16,18-hexaene-8-carboxamide hexahydrochloride | 78% of theory |
| (8S,11S,14S)-14-Amino-N-((1S)-4-amino-1-{[((4S)-4-amino-6-{[(25)-2,5-diaminopentyl]amino}-6-oxohexyl)amino]carbonyl}butyl)-11-[(2R)-3-amino-2-hydroxypropyl]-17-hydroxy-10,13-dioxo-9,12-diazatricyclo[14.3.1.1^2,6]henicosa-1(20),2(21),3,5,16,18-hexaene-8-carboxamide hexahydrochloride | 78% of theory |
| (8S,11S,14S)-14-Amino-N-[(1S)-4-amino-1-({[(1S)-4-amino-1-(2-{[(2S)-2,5-diaminopentyl]-amino}-2-oxoethyl)butyl]amino}carbonyl)butyl]-11-(3-aminopropyl)-17-hydroxy-10,13-dioxo-9,12-diazatricyclo[14.3.1.1^2,6]henicosa-1(20),2(21),3,5,16,18-hexaene-8-carboxamide hexahydrochloride | 99% of theory |
| (8S,11S,14S)-14-Amino-N-[(1S)-4-amino-1-({[(1S)-4-amino-1-(2-{[(2S)-2,5-diaminopentyl]-amino}-2-oxoethyl)butyl]amino}carbonyl)butyl]-11-[(2R)-3-amino-2-hydroxypropyl]-17-hydroxy-10,13-dioxo-9,12-diazatricyclo[14.3.1.1^2,6]henicosa-1(20),2(21),3,5,16,18-hexaene-8-carboxamide hexahydrochloride | 99% of theory |

Same assay, conditions: late stage modification step, hydrochloride

| Substance | step yield |
| --- | --- |
| (8S,11S,14S)-14-Amino-N-(1-(2-aminoethyl)-3-{[(2S)-2,5-diaminopentyl]amino}-3-oxopropyl)-11-(3-aminopropyl)-17-hydroxy-10,13-dioxo-9,12-diazatricyclo[14.3.1.1^2,6]henicosa-1(20),2(21),3,5,16,18-hexaene-8-carboxamide penta(hydrotrifluoroacetate) | 57% of theory |
| (8S,11S,14S)-14-Amino-N-[(1S)-4-amino-1-(2-{[(2S)-2,5-diaminopentyl]amino}-2-oxoethyl)butyl]-11-[(2R)-3-amino-2-hydroxypropyl]-17-hydroxy-9-methyl-10,13-dioxo-9,12-diazatricyclo[14.3.1.1^2,6]henicosa-1(20),2(21),3,5,16,18-hexaene-8-carboxamide pentahydrochloride | 95% of theory |

Same assay, conditions: late stage modification step, pentahydrochloride

| Substance | step yield |
| --- | --- |
| (8S,11S,14S)-14-Amino-N-((1S)-4-amino-1-{[((1S)-4-amino-1-{2-[(2-aminoethyl)amino]-2-oxoethyl}butyl)amino]carbonyl}butyl)-11-(3-aminopropyl)-17-hydroxy-10,13-dioxo-9,12-diazatricyclo[14.3.1.1^2,6]henicosa-1(20),2(21),3,5,16,18-hexaene-8-carboxamide pentahydrochloride | 99% of theory |
| (8S,11S,14S)-14-Amino-N-((1S)-4-amino-1-{[((1S)-4-amino-1-{2-[(2-aminoethyl)amino]-2-oxoethyl}butyl)amino]carbonyl}butyl)-11-[(2R)-3-amino-2-hydroxypropyl]-17-hydroxy-10,13-dioxo-9,12-diazatricyclo[14.3.1.1^26]henicosa-1(20),2(21),3,5,16,18-hexaene-8-carboxamide pentahydrochloride | 99% of theory |
| (8S,11S,14S)-14-Amino-N-[(s)-4-amino-1-({[(25)-2,5-diaminopentyl]amino}carbonyl)butyl]-11-(3-aminopropyl)-17-hydroxy-10,13-dioxo-9,12-diazatricyclo[14.3.1.1^2,6]henicosa-1(20),2(21),3,5,16,18-hexaene-8-carboxamide pentahydrochloride | 93% of theory |
| (8S,11S,14S)-14-Amino-N-{(1S)-4-amino-1-[({(4S)-4-amino-6-[(2-aminoethyl)amino]-6-oxohexyl}amino)carbonyl]butyl}-11-(3-aminopropyl)-17-hydroxy-10,13-dioxo-9,12-diazatricyclo[14.3.1.1^2,6]henicosa-1(20),2(21),3,5,16,18-hexaene-8-carboxamide pentahydrochloride | 99% of theory |
| (8S,11S,145)-14-Amino-N-{(1S)-4-amino-1-[({(4S)-4-amino-6-[(2-aminoethyl)amino]-6-oxohexyl}amino)carbonyl]butyl}-11-[(2R)-3-amino-2-hydroxypropyl]-17-hydroxy-10,13-dioxo-9,12-diazatricyclo[14.3.1.1^2,6]henicosa-1(20),2(21),3,5,16,18-hexaene-8-carboxamide pentahydrochloride | 99% of theory |
| (8S,15S,14S)-14-Amino-N-((1S)-1-(aminomethyl)-2-{[(2S)-2,5-diaminopentyl]amino}-2-oxoethyl)-11-(3-aminopropyl)-17-hydroxy-10,13-dioxo-9,12-diazatricyclo[14.3.1.1^2,6]henicosa-1 (20),2(21),3,5,16,18-hexaene-8-carboxamide pentahydrochloride | 99% of theory |
| N^5—(N^2-{[(8S,11S,14S)-14-Amino-1-(3-aminopropyl)-17-hydroxy-10,13-dioxo-9,12-diazatricyclo[14.3.1.1^2,6]henicosa-1(20),2(21),3,5,16,18-hexaen-8-yl]carbonyl}-L-ornithyl)-N-(2-aminoethyl)-L-ornithinamide pentahydrochloride | 99% of theory |

Same assay, conditions: late stage modification step, tetrahydrochloride

| Substance | step yield |
| --- | --- |
| (8S,11S,14S)-14-Amino-11-[(2R)-3-amino-2-hydroxypropyl]-N-(2-{[(2S)-2,5-diaminopentyl]-amino}-2-oxoethyl)-17-hydroxy-10,13-dioxo-9,12-diazatricyclo[14.3.1.1^2,6]henicosa-1(20),2(21),3,5,16,18-hexaene-8-carboxamide tetrahydrochloride | 64% of theory |
| (8S,11S,14S)-14-Amino-N-((1S)-4-amino-1-{[(2-aminoethyl)amino]carbonyl}butyl)-11-(3-aminopropyl)-17-hydroxy-10,13-dioxo-9,12-diazatricyclo[14.3.1.1^2,6]henicosa-1 (20),2(21),3,5,16,18-hexaene-8-carboxamide tetrahydrochloride | 99% of theory |
| (8S,11S,14S)-14-Amino-N-[(1S)-4-amino-1-({[(5S)-5-amino-6-hydroxyhexyl]amino}carbonyl)butyl]-11-(3-aminopropyl)-17-hydroxy-10,13-dioxo-9,12-diazatricyclo[14.3.1.1^2,6]henicosa-1 (20),2(21),3,5,16,18-hexaene-8-carboxamide tetrahydrochloride | 97% of theory |
| (8S,11S,14S)-14-Amino-N-{(4S)-4-amino-5-[(2-aminoethyl)amino]-5-oxopentyl}-11-[(2R)-3-amino-2-hydroxypropyl]-17-hydroxy-10,13-dioxo-9,12-diazatricyclo[14.3.1.1^2,6]-henicosa-1(20),2(21),3,5,16,18-hexaene-8-carboxamide tetrahydrochloride | 99% of theory |
